Results reported in patent US20130216549A1.
These are yes or no findings as the source states them, for the method shown.

Key:
Assay in all cases: capture ELISA: NI-0801 coated, NusA fusion protein titrated, detected with anti-NusA antibody, fluorescence
huMIPb (human) = target: huMIPb (human)
huRantes (human) = target: huRantes (human)
cyRantes (cynomolgus) = target: cyRantes (cynomolgus)
cyMIG (cynomolgus) = target: cyMIG (cynomolgus)
huMIPa (human) = target: huMIPa (human)
moRantes (mouse) = target: moRantes (mouse)

Measured: binding

B1: NI-0801 (IgG1-formatted) (antibody, V domains shown)
VH: QVQLVESGGGVVQPGRSLRLSCAASGFTFSNSGIHWVRQAPGKGLEWVAVISYDGSNKYYADSVKGRFTISRDNSKNTLYLQMNSLRAEDTAVYYCARLRDNAEYTDYWGQGTLVTVSS
VL: NFMLTQPHSVSESPGKTVTISCTGSGGSIASNYVQWYQQRPGSSPTTVIYEDNQRPSGVPDRFSGSIDSSSNSASLTISGLKTEDEADYYCQSYDPLPVWVFGGGTKLTVLG
no binding (tested: about 2.5e-7 M): all assays above
